Data as given in US20050271661A1, “Methods and reagents for the treatment of immunoinflammatory disorders” (priority 2004, published 2005).

Key:
[1] = test system: NFκB; assay: cells; conditions: Homo sapiens, CCRF-CEM, read-out: IC50, inhibition of NFκB translocation
[2] = test system: NFAT; assay: NFAT-dependent transcription, NFAT luciferase reporter in CCRF-CEM cells activated with PI; type: cell-based; conditions: Homo sapiens, read-out: IC50, inhibition of PI-stimulated NFAT transcription
Description: (§1) Reporter plasmids were transfected into CCRF-CEM cells using nucleofection (Nucleofector; AMAXA, Germany). Reporter plasmids expressing firefly luciferase (Luc) were purchased from Stratagene. pNFAT-Luc contains four NFAT binding sites; pGRE-Luc contains four GRE sites, and pAP1-Luc contains seven AP1 binding sites. The NFκB luciferase reporter, p(IL6κB)3-50hu.IL6-luc+, contains three NFκB sites and was a generous gift of Dr. De Bosscher (University of Ghent, Belgium). 10^7 cells suspended in 100 μL Amaxa ‘R’ Cell-line solution were transferred to a cuvette. One μL (1 μg/μL) of solution containing reporter plasmid (firefly luciferase) and control plasmid (pRL-TK-Renilla) (Renilla luciferase) (Promega) at a ratio of (10:1) were added to the cell suspension. […] After transfection the cells were suspended in 200 μL medium, allowed to recover for an hour, equal volume of medium containing 2× drugs were added and incubated at 37° C. for 30 min. Then the cells were stimulated with PI for another five hours. The luciferase activity of each of plasmid and control Renilla-plasmid were measured as per the procedure in Promega Luciferase assay kit.

[3] = test system: NFκB; assay: NFκB-dependent transcription, NFκB luciferase reporter in CCRF-CEM cells activated with PI; type: cell-based; conditions: Homo sapiens, at high concentration
Description: as §1
NFκB-dependent transcription was measured by transient transfection of an NFκB reporter plasmid into CCRF-CEM cells and subsequent activation with PI.

[4] = test system: AP1; assay: AP1-dependent transcription, AP1 luciferase reporter in CCRF-CEM cells activated with PI; type: cell-based
Description: as §1

Structure (SMILES): Clc1ccc2c(c1)C(N1CCNCC1)=Nc1ccccc1O2 [amoxapine]
- IC50 [1]: 20 µM
- IC50 [2]: 2 µM
- IC50 [3]: 20 µM
- IC50 [4]: 20 to 30 µM
